Results: the supplement of paper PMC10849652
Some of the results follow.

The chains behind the UniProt entries cited, without tags or fusion partners. Where a name states a change or a piece, a line headed by the entry shows the natural chain unless it says otherwise.
UniProt O14777: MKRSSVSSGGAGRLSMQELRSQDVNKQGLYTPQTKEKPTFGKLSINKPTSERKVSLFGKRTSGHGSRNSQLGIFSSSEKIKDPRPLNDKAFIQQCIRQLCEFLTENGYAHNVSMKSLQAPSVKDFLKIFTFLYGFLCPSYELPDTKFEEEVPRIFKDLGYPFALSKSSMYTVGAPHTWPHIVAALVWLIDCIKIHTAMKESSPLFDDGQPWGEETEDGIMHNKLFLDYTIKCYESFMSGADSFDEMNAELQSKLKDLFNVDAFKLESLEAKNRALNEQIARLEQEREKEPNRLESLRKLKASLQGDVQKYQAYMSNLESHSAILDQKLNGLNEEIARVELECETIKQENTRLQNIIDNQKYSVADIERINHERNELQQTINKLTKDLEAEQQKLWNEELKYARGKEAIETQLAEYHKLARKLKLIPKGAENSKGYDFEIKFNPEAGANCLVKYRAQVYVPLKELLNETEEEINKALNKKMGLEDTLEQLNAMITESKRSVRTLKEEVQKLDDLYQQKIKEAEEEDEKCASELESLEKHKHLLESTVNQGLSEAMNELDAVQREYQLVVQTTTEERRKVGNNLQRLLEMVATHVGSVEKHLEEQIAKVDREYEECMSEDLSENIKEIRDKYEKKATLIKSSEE
UniProt P56181: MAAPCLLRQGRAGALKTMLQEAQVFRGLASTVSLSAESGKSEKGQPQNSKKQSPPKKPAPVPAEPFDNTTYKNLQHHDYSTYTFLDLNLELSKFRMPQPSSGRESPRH
UniProt Q9BPW8: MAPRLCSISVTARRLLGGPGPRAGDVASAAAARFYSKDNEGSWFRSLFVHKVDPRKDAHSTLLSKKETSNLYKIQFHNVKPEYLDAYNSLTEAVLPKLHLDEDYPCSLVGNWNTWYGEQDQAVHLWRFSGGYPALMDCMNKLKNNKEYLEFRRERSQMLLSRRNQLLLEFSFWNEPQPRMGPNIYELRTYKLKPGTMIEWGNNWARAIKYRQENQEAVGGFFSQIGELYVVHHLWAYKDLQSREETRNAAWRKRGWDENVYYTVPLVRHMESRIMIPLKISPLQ
UniProt P19838: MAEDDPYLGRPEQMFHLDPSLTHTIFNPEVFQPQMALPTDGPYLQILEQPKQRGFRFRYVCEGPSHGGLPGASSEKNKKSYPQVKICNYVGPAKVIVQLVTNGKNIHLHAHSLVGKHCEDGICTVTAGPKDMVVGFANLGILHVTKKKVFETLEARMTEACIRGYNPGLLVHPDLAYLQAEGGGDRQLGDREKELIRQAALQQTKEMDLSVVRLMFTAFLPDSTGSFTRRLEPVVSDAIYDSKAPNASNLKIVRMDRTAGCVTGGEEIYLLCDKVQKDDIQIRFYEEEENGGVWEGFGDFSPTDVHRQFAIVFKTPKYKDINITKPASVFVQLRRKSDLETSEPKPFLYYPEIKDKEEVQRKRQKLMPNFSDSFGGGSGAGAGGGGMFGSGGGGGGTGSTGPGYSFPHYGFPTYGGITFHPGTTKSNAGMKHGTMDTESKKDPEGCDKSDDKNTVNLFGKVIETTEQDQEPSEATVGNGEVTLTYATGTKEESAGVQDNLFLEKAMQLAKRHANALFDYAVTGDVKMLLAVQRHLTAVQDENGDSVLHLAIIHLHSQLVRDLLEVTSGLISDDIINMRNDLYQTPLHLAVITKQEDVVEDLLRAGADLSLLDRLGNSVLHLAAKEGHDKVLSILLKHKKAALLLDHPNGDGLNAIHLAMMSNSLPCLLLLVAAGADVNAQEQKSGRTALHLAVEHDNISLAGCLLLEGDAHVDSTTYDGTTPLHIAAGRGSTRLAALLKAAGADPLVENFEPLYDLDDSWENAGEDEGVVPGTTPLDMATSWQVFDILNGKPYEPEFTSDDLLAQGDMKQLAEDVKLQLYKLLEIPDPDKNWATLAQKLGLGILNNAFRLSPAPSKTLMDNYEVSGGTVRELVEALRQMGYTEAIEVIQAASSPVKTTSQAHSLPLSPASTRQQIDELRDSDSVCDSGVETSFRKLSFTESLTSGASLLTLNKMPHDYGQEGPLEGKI
UniProt P25208: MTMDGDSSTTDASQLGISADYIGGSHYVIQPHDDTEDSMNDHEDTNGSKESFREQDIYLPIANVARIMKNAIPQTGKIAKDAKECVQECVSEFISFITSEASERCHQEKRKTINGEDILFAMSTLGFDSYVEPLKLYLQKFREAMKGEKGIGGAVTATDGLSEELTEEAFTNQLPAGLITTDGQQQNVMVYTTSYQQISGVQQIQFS
UniProt P51956: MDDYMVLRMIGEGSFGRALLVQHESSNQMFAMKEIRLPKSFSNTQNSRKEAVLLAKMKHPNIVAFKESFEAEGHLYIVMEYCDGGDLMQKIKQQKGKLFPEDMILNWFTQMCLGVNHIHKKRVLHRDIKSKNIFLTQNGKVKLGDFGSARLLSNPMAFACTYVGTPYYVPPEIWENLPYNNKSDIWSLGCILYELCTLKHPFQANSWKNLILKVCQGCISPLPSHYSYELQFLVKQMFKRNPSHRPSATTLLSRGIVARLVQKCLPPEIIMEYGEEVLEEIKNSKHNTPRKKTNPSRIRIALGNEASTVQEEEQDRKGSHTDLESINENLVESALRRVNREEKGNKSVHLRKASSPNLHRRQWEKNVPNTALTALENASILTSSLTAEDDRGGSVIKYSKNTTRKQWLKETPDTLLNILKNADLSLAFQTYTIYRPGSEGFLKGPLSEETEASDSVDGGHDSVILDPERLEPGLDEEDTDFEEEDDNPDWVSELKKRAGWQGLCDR
UniProt P17568, whole entry, looked up: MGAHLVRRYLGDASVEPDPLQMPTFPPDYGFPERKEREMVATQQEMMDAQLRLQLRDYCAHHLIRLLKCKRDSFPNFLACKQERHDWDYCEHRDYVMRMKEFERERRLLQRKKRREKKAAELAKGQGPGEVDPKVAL
UniProt Q7L592: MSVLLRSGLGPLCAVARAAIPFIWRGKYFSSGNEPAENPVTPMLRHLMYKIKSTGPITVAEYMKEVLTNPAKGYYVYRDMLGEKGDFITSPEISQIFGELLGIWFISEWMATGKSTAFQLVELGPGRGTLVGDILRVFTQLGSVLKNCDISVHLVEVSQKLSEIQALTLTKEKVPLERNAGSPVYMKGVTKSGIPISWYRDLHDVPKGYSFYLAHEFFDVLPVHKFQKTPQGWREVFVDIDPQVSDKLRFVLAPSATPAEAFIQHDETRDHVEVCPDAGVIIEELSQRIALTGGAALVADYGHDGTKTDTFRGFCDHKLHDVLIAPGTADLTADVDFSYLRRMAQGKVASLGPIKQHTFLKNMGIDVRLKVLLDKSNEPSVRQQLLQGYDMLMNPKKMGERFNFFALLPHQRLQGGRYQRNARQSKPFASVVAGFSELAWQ

Columns and labels:
Assay in all cases: log2 fold change, soluble protein after heating vs DMSO (PISA); higher = thermal stabilisation; K562 lysate, 10 uM; active = over 0.2 and 3.5 SD of the protein, either way, in both replicates (recomputed)
[1] = compound: C=CC(=O)N1CCC[C@@H](n2nc(-c3ccc(Oc4ccccc4)cc3)c3c(N)ncnc32)C1 [ibrutinib]
Procedure, shortened: (§1)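 K562 pellets were dounce-homogenised in PBS pH 7.4 with 1 mM MgCl2, and the crude extract at 1 mg/mL protein was treated with 10 μM compound for 30 min. Aliquots were heated for 3 min across 48°C-58°C, pooled, and brought to 0.5% NP-40 at 4°C; soluble protein was the supernatant after 21,000xg for 90 min. Soluble protein was quantified by TMTpro 16plex LC-MS/MS with channel sums equalised, and reported as log2 fold change in thermal stability against DMSO controls, with values from duplicates.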

[2] = compound: CC(=O)c1cnc2ccc(-c3cc(Cl)c(O)c(Cl)c3)nc2c1N[C@H]1CC[C@H](CN(C)C)CC1
Procedure, shortened: as §1

[3] = compound: CC(C)(C)Cn1c(N)nc2ccc(-c3[nH]c(C(C)(C)C)nc3-c3ccc(F)cc3)nc21 [ralimetinib]
Procedure, shortened: as §1

[4] = compound: CC(C)(O)CC(=O)NCCn1ccc2ncnc(Nc3ccc(Oc4cccc(C(F)(F)F)c4)c(Cl)c3)c21
Procedure, shortened: as §1

[5] = compound: CC(C)C1=C2N=C(C=C(N2N=C1)NCC3=CC=CC=C3)NCCCCCCN
Procedure, shortened: as §1

[6] = compound: CC1=C(C(CC(=O)N1)C2=CC=C(C=C2)C(F)(F)F)C(=O)NC3=C(C=C4C(=C3)C=NN4)F
Procedure, shortened: as §1

[7] = compound: CC1=C(C2=C(C=C1)C(=O)C3=CC=CC=C3N2CCCN)C
Procedure, shortened: as §1

[8] = compound: CC1=C(C=C(C=C1)NC(=O)C2=CC(=CC=C2)C(C)(C)C#N)NC3=CC4=C(C=C3)N=CN(C4=O)C
Procedure, shortened: as §1

[9] = compound: CC1=C(C=C(C=C1)NC(=O)C2=CC(=CC=C2)N(C)C)NC(=O)C3=CC=C(C=C3)O
Procedure, shortened: as §1

[10] = compound: CC1=CC=C(C=C1)SC2=C3C=C(SC3=CN=C2)C(=O)N
Procedure, shortened: as §1

[11] = compound: CCCS(=O)(=O)Nc1ccc(F)c(C(=O)c2c[nH]c3ncc(-c4ccc(Cl)cc4)cc23)c1F [vemurafenib]
Procedure, shortened: as §1

[12] = compound: CCCS(=O)(=O)Nc1ccc(F)c(C(=O)c2c[nH]c3ncc(Cl)cc23)c1F
Procedure, shortened: as §1

[13] = compound: CCN(CCCOc1ccc2c(Nc3cc(CC(=O)Nc4cccc(F)c4)[nH]n3)ncnc2c1)CCOP(=O)(O)O [barasertib]
Procedure, shortened: as §1

[14] = compound: CC[C@@H]1C(=O)N(C)c2cnc(Nc3ccc(C(=O)NC4CCN(C)CC4)cc3OC)nc2N1C1CCCC1
Procedure, shortened: as §1

[15] = compound: CC[C@@H]1C(=O)N(C)c2cnc(Nc3ccc(C(=O)N[C@H]4CC[C@H](N5CCN(CC6CC6)CC5)CC4)cc3OC)nc2N1C(C)C [volasertib]
Procedure, shortened: as §1

[16] = compound: CCn1c(C(=O)N(C2CC2)C2CC2)cc2c3c(ncn3C)c(Nc3cc(C)n(C)n3)nc21
Procedure, shortened: as §1

[17] = compound: CCn1cc(-c2ccnc3[nH]c(-c4cccc(CN(C)C)c4)cc23)c(-c2ccc(NC(=O)N(C)C)cc2)n1
Procedure, shortened: as §1

[18] = compound: CN1CCC(CNc2ccc3ncc(-c4cccc(OC(F)(F)F)c4)n3n2)CC1
Procedure, shortened: as §1

[19] = compound: CN1CCN(CCOc2cc(OC3CCOCC3)c3c(Nc4c(Cl)ccc5c4OCO5)ncnc3c2)CC1 [saracatinib]
Procedure, shortened: as §1

[20] = compound: CN1CCN(c2nc(C3=C(c4c[nH]c5ccccc45)C(=O)NC3=O)c3ccccc3n2)CC1 [sotrastaurin]
Procedure, shortened: as §1

Measured: log2 fold change

NDC80 (UniProt O14777)
inactive: [1] -0.002 | [2] -0.008 | [3] 0.002 | [4] 0.009 | [5] -0.021 | [6] 0.025 | [7] 0.023 | [8] -0.01 | [9] 0.012 | [10] -0.015 | [11] -0.098 | [12] 0.027 | [13] 0.003 | [14] -0.04 | [15] -0.016 | [16] 0.044 | [17] 0.051 | [18] -0.081 | [19] 0.009 | [20] -0.022

NDUFV3 (UniProt P56181)
inactive: [1] 0.13 | [2] -0.056 | [3] 0.001 | [4] -0.035 | [5] 0.017 | [6] 0 | [7] -0.028 | [8] -0.026 | [9] 0.025 | [10] -0.085 | [11] 0.002 | [12] -0.008 | [13] -0.049 | [14] -0.034 | [15] 0.132 | [16] 0.025 | [17] -0.059 | [18] 0.032 | [19] 0.1 | [20] 0.075

NIPSNAP1 (UniProt Q9BPW8)
inactive: [1] 0.037 | [2] 0.023 | [3] 0.054 | [4] 0.03 | [5] 0.107 | [6] 0.069 | [7] -0.026 | [8] 0.033 | [9] 0.013 | [10] 0.004 | [11] -0.056 | [12] 0.07 | [13] 0.038 | [14] -0.067 | [15] -0.053 | [16] -0.056 | [17] -0.036 | [18] -0.154 | [19] 0.011 | [20] -0.043

NFKB1 isoform 2 (UniProt P19838)
inactive: [1] 0.007 | [2] 0.017 | [3] 0.013 | [4] -0.016 | [5] 0.004 | [6] 0.054 | [7] -0.014 | [8] -0.027 | [9] 0.056 | [10] -0.007 | [11] -0.019 | [12] 0 | [13] -0.001 | [14] -0.017 | [15] -0.021 | [16] -0.013 | [17] -0.046 | [18] -0.003 | [19] 0.017 | [20] 0.009

NFYB (UniProt P25208)
inactive: [1] -0.12 | [2] -0.009 | [3] -0.084 | [4] -0.105 | [5] -0.02 | [6] 0.018 | [7] -0.024 | [8] -0.004 | [9] 0.027 | [10] -0.037 | [11] 0.219 | [12] 0.013 | [13] 0.048 | [14] 0.09 | [15] -0.031 | [16] -0.038 | [17] -0.085 | [18] -0.02 | [19] -0.012 | [20] 0.01

NEK3 (UniProt P51956)
inactive: [1] 0.025 | [2] -0.057 | [3] -0.059 | [4] -0.045 | [5] -0.045 | [6] 0.079 | [7] 0.08 | [8] 0.001 | [9] -0.006 | [10] 0.005 | [11] -0.126 | [12] 0.046 | [13] 0.378 | [14] 0.098 | [15] 0.039 | [16] 0.005 | [17] 0.009 | [18] -0.018 | [19] -0.058 | [20] 0.021

NDUFB7 (UniProt P17568)
inactive: [1] 0.023 | [2] -0.025 | [3] 0.017 | [4] -0.042 | [5] 0.014 | [6] 0.052 | [7] -0.004 | [8] -0.004 | [9] 0.03 | [10] 0.006 | [11] 0.02 | [12] 0.037 | [13] 0.003 | [14] 0.048 | [15] 0.019 | [16] -0.111 | [17] 0.29 | [18] -0.156 | [19] -0.103 | [20] 0.001

NDUFAF7 (UniProt Q7L592)
inactive: [1] -0.017 | [2] 0.046 | [3] 0.047 | [4] -0.027 | [5] -0.077 | [6] 0.026 | [7] 0.013 | [8] 0.023 | [9] -0.005 | [10] 0.012 | [11] 0.041 | [12] -0.01 | [13] -0.038 | [14] 0.023 | [15] -0.013 | [16] 0.019 | [17] 0.025 | [18] -0.048 | [19] 0.015 | [20] 0.031
